Source: patent US12570671B2 (BRISTOL-MYERS SQUIBB COMPANY, priority 2020, dated 2026)
At least one structure is not confirmed: it was looked up by name or label, or the drawing left a doubt.

Amino acid sequences for entries named in this document (tags omitted). A change or cut given only in a name is not applied to a line headed by its entry.
UniProt Q96SW2: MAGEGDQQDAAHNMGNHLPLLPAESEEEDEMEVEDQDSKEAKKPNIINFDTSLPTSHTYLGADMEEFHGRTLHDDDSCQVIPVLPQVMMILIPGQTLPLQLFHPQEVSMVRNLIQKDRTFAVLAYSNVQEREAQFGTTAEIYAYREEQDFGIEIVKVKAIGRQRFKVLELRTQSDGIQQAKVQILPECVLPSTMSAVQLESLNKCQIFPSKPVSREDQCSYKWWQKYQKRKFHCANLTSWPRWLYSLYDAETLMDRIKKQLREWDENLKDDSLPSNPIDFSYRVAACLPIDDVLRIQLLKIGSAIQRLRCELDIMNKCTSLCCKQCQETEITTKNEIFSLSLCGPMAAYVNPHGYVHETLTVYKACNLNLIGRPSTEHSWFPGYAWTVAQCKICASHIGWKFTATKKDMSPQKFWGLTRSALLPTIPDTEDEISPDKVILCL
UniProt Q9UKS7: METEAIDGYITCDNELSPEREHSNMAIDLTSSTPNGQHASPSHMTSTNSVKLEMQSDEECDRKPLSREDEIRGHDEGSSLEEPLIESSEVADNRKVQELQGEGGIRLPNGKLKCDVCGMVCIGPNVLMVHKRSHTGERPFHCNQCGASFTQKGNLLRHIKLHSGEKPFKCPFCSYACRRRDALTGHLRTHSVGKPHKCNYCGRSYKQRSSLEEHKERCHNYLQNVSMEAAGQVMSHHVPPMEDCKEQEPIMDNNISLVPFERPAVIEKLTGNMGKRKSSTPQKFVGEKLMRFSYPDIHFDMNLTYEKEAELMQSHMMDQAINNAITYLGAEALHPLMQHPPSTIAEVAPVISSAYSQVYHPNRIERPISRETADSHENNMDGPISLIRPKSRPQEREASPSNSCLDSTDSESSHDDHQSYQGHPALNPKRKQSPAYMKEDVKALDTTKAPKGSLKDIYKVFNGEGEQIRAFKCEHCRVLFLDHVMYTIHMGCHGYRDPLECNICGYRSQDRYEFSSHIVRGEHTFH
UniProt Q13422: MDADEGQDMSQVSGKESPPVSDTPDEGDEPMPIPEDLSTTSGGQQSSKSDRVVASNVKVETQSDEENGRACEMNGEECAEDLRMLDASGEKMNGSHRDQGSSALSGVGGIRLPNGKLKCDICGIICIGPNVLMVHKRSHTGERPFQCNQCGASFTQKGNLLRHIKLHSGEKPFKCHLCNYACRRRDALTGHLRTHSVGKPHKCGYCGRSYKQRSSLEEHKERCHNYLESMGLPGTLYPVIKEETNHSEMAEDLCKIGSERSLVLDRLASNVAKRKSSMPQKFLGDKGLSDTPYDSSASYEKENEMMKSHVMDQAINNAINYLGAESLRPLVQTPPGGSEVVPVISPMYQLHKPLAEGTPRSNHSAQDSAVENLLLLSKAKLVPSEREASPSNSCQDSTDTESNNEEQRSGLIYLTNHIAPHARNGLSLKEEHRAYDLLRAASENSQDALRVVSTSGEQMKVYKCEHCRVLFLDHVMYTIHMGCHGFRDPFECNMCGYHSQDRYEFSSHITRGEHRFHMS

Key:
Helios = Helios (Homo sapiens, UniProt Q96SW2+Q9UKS7); assay: Helios Cellular Degradation Assay (Helios readout); type: cell-based; parameters: endogenous in cells; host or cells: Jurkat; conditions: read-out: Helios Jurkat IC50; Jurkat cells, 72 h incubation, Helios-PE antibody staining, flow cytometry
Protocol: (§1) Jurkat cells were plated at 80,000 cells/well in 40 μL RPMI+10% FBS in a 384 well cell culture plate prior to using acoustic dispensing technology for adding compound of interest. Cell cultures were incubated for 72 h at 37° C. and 5% C02. In order to facilitate analysis, cell cultures were spun down at 200 rpm for 5 min and the supernatant was discarded. After shaking the plate to dislodge the cell pellet, cells were resuspended in 50 μL of Fixation Buffer (eBioScience FoxP3 buffer set 00-5523-00) for 60 min at room temperature. After centrifuging and discarding the supernatant, cells were permeabilized with 50 μL of Permeabilization buffer (eBioScience FoxP3 buffer set 00-5523-00) for 10 min at room temperature. Following permeabilization, cells were spun down and the supernatant was replaced with 20 μL fluorescently labelled antibodies against Helios, Ikaros and Aiolos or corresponding Isotype controls in 1× Permeabilization buffer (Ikaros-Alexa488 [Biolegend, Cat #368408, 1:50], Helios-PE [CST, Cat #29360, 1:50], Aiolos-Alexa647 [Biolegend, Cat #371106Biolegend, 1:25]) and staining reactions were incubated for 1 h at room temperature; protected from light. […] Stained cells were resuspended in 25 μL of flow cytometry staining buffer (PBS+0.2% BSA) and analyzed using an Intellicyt Ique Plus flow cytometer.

Ikaros = Ikaros (Homo sapiens, UniProt Q13422+Q96SW2); assay: Helios Cellular Degradation Assay (Ikaros readout); type: cell-based; parameters: endogenous in cells; host or cells: Jurkat; conditions: read-out: Ikaros Jurkat IC50; Jurkat cells, 72 h incubation, Ikaros-Alexa488 antibody staining, flow cytometry
Protocol: as §1

SMILES: CN(C)c1cc2c(Cl)cc(Cl)cc2c(-c2ccc3c(c2)CN(C2CCC(=O)NC2=O)C3=O)n1 (centres unmarked) [Example 63, 3-{5-[5,7-dichloro-3-(dimethylamino)isoquinolin-1-yl]-1-oxo-2,3-dihydro-1H-isoindol-2-yl}piperidine-2,6-dione]
- DC50 (Helios): > 20 µM
- DC50 (Ikaros): > 20 µM
